Source: PubChem BioAssay AID248 (DTP/NCI, 2004)
The list does not hold the whole screen: it is rich in T/C values a quarter to a half above the control, in often repeated tests (any T/C) and in doses without a T/C. Further doses and runs are listed elsewhere. T/C: endpoint of the treated group in % of that of the vehicle group. Some doses have a count of surviving animals in place of a T/C: the source files T/C as zero there, which appears to mark a toxic dose or a test without result, not a measured value. Some survivor counts are full or nearly so, which does not show that the dose was tolerated: the source hardly ever lists a survival T/C far under the control, and the zero likely stands for such cases as well. Survivors were counted at the toxicity check, usually on the fifth day, unless a day is given; later deaths do not show. Schedule codes are those of the source, taken here to give the interval after Q, in days (D) or hours (H), and the number of doses after X. Additions like (4×) say how often a value occurs here. Some schedules carry Z or #; the key to these is not given. Some structures stand for samples that the source files as different forms (salt, stereo form or complex); doses refer to the form tested. Some entries hold several experiments; the values are given in rising order. For survival time, this PubChem deposit counts one and a half times the control or more as active, and values a quarter to a half above the control carry no call in these data; other NCI protocols may use other cut-offs.

Test system: L1210 leukemia ip in BDF1 mice, survival T/C
Assay: NCI In Vivo Anticancer Drug Screen. Data for tumor model L1210 Leukemia (intraperitoneal) in B6D2F1 (BDF1) mice
Settings: T/C endpoint: mean survival time, higher T/C = longer survival
[1] = dose: 100.0 mg/kg/injection, schedule: Q01DX009 (ip), vehicle: Klucel (hydroxypropylcellulose) (HPC)
[2] = dose: 200.0 mg/kg/injection, schedule: Q01DX009 (ip), vehicle: Klucel (hydroxypropylcellulose) (HPC)
[3] = dose: 400.0 mg/kg/injection, schedule: Q01DX009 (ip), vehicle: Klucel (hydroxypropylcellulose) (HPC)
[4] = dose: 100.0 mg/kg/injection, schedule: Q01DX009 (ip), vehicle: saline with Tween-80
[5] = dose: 400.0 mg/kg/injection, schedule: Q01DX009 (ip), vehicle: saline with Tween-80
[6] = dose: 200.0 mg/kg/injection, schedule: Q01DX009 (ip), vehicle: saline with Tween-80
[7] = dose: 400.0 mg/kg/injection, schedule: Q04DX003 (ip), vehicle: saline with Tween-80
[8] = dose: 100.0 mg/kg/injection, schedule: Q01DX009 (ip), vehicle: saline
[9] = dose: 400.0 mg/kg/injection, schedule: Q04DX003 (ip), vehicle: saline
[10] = dose: 50.0 mg/kg/injection, schedule: Q01DX009 (ip), vehicle: Klucel (hydroxypropylcellulose) (HPC)
[11] = dose: 400.0 mg/kg/injection, schedule: Q04DX003 (ip), vehicle: Klucel (hydroxypropylcellulose) (HPC)

Question: Which results are given for c1cc[c]([Pb]([c]2ccccc2)([c]2ccccc2)[n]2ccnc2)cc1?
Answer: survivor count (dose: 20.0 mg/kg/injection, schedule: Q01DX001 (ip), vehicle: other): 3 of 6; survivor count (dose: 40.0 mg/kg/injection, schedule: Q01DX001 (ip), vehicle: other): 2 of 6; survivor count (dose: 80.0 mg/kg/injection, schedule: Q01DX001 (ip), vehicle: other): 0 of 6; survivor count (dose: 100.0 mg/kg/injection, schedule: Q01DX001 (ip), vehicle: other): 1 of 6; survivor count (dose: 200.0 mg/kg/injection, schedule: Q01DX001 (ip), vehicle: other): 0 of 6; survivor count (dose: 400.0 mg/kg/injection, schedule: Q01DX001 (ip), vehicle: other): 1 of 6

Question: What does the source list for Cc1ccc(OCCOc2ccc(C(=O)O)cc2)cc1?
Answer: survivor count [1]: 0 of 6; survivor count [2]: 0 of 6; survivor count [3]: 5 of 6

Question: How did the survivor count [4] turn out when COC(=O)c1ccccc1NC(=S)NC(=O)c1ccccc1F was run?
Answer: 6 of 6 (2×)

Question: And the survivor count [5]?
Answer: 6 of 6

Question: For CCC1=C2C(=O)c3ccccc3C2=C(C)S(=O)(=O)O1, which survivor count [4] is on record?
Answer: 5 of 6

Question: And the survivor count [6]?
Answer: 2 of 6

Question: What about the survivor count [7] of the same molecule?
Answer: 1 of 6

Question: Which results are given for NCCCNCCCCNCCCN?
Answer: survivor count (dose: 64.0 mg/kg/injection, schedule: Q01DX010 (ip), vehicle: other): 1 of 6; survivor count (dose: 128.0 mg/kg/injection, schedule: Q01DX010 (ip), vehicle: other): 0 of 6; survivor count (dose: 256.0 mg/kg/injection, schedule: Q01DX010 (ip), vehicle: other): 0 of 6; survivor count (dose: 512.0 mg/kg/injection, schedule: Q01DX010 (ip), vehicle: other): 0 of 6

Question: How did the survivor count [2] turn out when CCC(Br)C(=O)Nc1c(C)cccc1Cl (stereo not given) was run?
Answer: 6 of 6

Question: And the survivor count [3]?
Answer: 6 of 6

Question: For Clc1ccccc1C(=Nc1ccccc1)C(=Nc1ccccc1)c1ccccc1Cl, which survivor count (dose: 200.0 mg/kg/injection, schedule: Q01DX001 (ip), vehicle: Klucel (hydroxypropylcellulose) (HPC)) is on record?
Answer: 6 of 6

Question: Which results are given for C[P+](C)(Cc1ccc([N+](=O)[O-])cc1)c1ccccc1?
Answer: survivor count [8]: 1 of 6; survivor count (dose: 100.0 mg/kg/injection, schedule: Q04DX003 (ip), vehicle: saline): 3 of 6; survivor count (dose: 200.0 mg/kg/injection, schedule: Q04DX003 (ip), vehicle: saline): 0 of 6; survivor count [9]: 0 of 6

Question: Which results are given for CC(=O)CC(C)=NCCN=C(C)CC(C)=O.[Ni]?
Answer: survivor count (dose: 25.0 mg/kg/injection, schedule: Q01DX009 (ip), vehicle: gum acacia): 6 of 6; survivor count (dose: 50.0 mg/kg/injection, schedule: Q01DX009 (ip), vehicle: gum acacia): 0 of 6; survivor count (dose: 100.0 mg/kg/injection, schedule: Q04DX003 (ip), vehicle: gum acacia): 0 of 6; survivor count (dose: 200.0 mg/kg/injection, schedule: Q04DX003 (ip), vehicle: gum acacia): 0 of 6; survivor count (dose: 400.0 mg/kg/injection, schedule: Q04DX003 (ip), vehicle: gum acacia): 0 of 6

Question: O=C1c2ccccc2C(C2c3ccccc3C(=O)c3ccccc32)c2ccccc21 was tested. Which survivor count (dose: 200.0 mg/kg/injection, schedule: Q01DX001 (ip), vehicle: carboxymethylcellulose (CMC)) did it give?
Answer: 4 of 4

Question: For COc1ccc(OC)c(NC(=O)Nc2cccc(F)c2)c1, which survivor count (dose: 400.0 mg/kg/injection, schedule: Q01DX009 (ip), vehicle: gum acacia) is on record?
Answer: 6 of 6

Question: Which survivor count [9] does the source give for O=C(O)c1c(Cl)c(Cl)c(Cl)c(Cl)c1-c1c2ccc(=O)c(O)c-2oc2c(O)c(O)ccc12 here?
Answer: 2 of 6

Question: Which results are given for O=C(O)CCSSCCC(=O)O?
Answer: survivor count [10]: 5 of 6; survivor count [11]: 6 of 6

Question: How did the survivor count (dose: 400.0 mg/kg/injection, schedule: Q01DX009 (ip), vehicle: acetone) turn out when Clc1ccc2[nH]c(-c3ccccc3)c(-c3ccccc3)c2c1 was run?
Answer: 2 of 6

Question: CC[C@@]1(O)C(=O)OCc2c1cc1n(c2=O)Cc2c-1nc1ccccc1c2Cl was tested. Which T/C (dose: 200.0 mg/kg/injection, schedule: Q01DX001 (ip), vehicle: saline) did it give?
Answer: 130 % of control

Question: How did the T/C [10] turn out when CN(C)c1ncnc2c1ncn2C1OC(CO)C(N)C1O (stereo not given) was run?
Answer: 131 % of control

Question: And the survivor count [1]?
Answer: 6 of 6

Question: What about the survivor count [2] of the same molecule?
Answer: 4 of 6

Question: O=C(Cc1ccccn1)NCCc1ccccc1 was tested. Which survivor count (dose: 300.0 mg/kg/injection, schedule: Q01DX009 (ip), vehicle: saline) did it give?
Answer: 2 of 6

Question: Which results are given for CC(C)(C)C1COP(=S)(c2ccccc2)OC1 (stereo not given)?
Answer: survivor count (dose: 100.0 mg/kg/injection, schedule: Q04DX003 (ip), vehicle: Klucel (hydroxypropylcellulose) (HPC)): 2 of 6; survivor count (dose: 200.0 mg/kg/injection, schedule: Q04DX003 (ip), vehicle: Klucel (hydroxypropylcellulose) (HPC)): 0 of 6 (2×); survivor count [11]: 0 of 6 (2×)

Question: Which results are given for CN(C)CCCNc1c2ccccc2nc2ccc(F)cc12?
Answer: survivor count (dose: 40.0 mg/kg/injection, schedule: Q01DX001 (ip), vehicle: saline): 4 of 4; survivor count (dose: 80.0 mg/kg/injection, schedule: Q01DX001 (ip), vehicle: saline): 0 of 4

Question: CC(C)(Br)C(=O)C(Br)Br was tested. Which survivor count (dose: 400.0 mg/kg/injection, schedule: Q01DX001 (ip), vehicle: saline) did it give?
Answer: 0 of 4

Question: COc1cc(N(C)C)c(OC)cc1C=O was tested. Which survivor count [3] did it give?
Answer: 3 of 6

Question: FC(Cl)(Cl)c1nc2nc(Cl)c(Cl)nc2[nH]1 was tested. Which survivor count (dose: 200.0 mg/kg/injection, schedule: Q01DX009 (ip), vehicle: water) did it give?
Answer: 1 of 6

Question: And the survivor count (dose: 400.0 mg/kg/injection, schedule: Q01DX009 (ip), vehicle: water)?
Answer: 1 of 6

Question: S=c1[nH]sc(=S)[nH]1 was tested. Which survivor count [5] did it give?
Answer: 3 of 6

Question: Which results are given for O=C1CCC(N2C(=O)C3C4c5ccccc5C(c5ccccc54)C3C2=O)C(=O)N1 (stereo not given)?
Answer: survivor count [7]: 3 of 3; survivor count [9]: 3 of 3

Question: With C=C1CC(C)(c2ccc(CCCC(=O)OCC)cc2)OC1=O (stereo not given) as the molecule, how does the survivor count [7] read?
Answer: 5 of 6

Question: Which results are given for CCCCC[C@H](CN(C)C)[C@H](O)/C=C/c1ccc(Cl)cc1?
Answer: survivor count (dose: 100.0 mg/kg/injection, schedule: Q04DX002 (ip), vehicle: other): 3 of 3; survivor count (dose: 200.0 mg/kg/injection, schedule: Q04DX002 (ip), vehicle: other): 3 of 3; survivor count (dose: 400.0 mg/kg/injection, schedule: Q04DX002 (ip), vehicle: other): 3 of 3

Question: For Cc1nc(N)[nH]c(=O)c1CCCNc1ccc(/C=C/C2(CCl)OCCO2)cc1, which survivor count (dose: 100.0 mg/kg/injection, schedule: Q01DX Z (ip), vehicle: carboxymethylcellulose (CMC)) is on record?
Answer: 6 of 6

Question: What does the source list for COc1ccc2c(ccc[n+]2C)c1?
Answer: survivor count (dose: 50.0 mg/kg/injection, schedule: Q01DX009 (ip), vehicle: saline): 1 of 3; survivor count (dose: 75.0 mg/kg/injection, schedule: Q01DX009 (ip), vehicle: saline): 0 of 6; survivor count [8]: 0 of 3; survivor count (dose: 100.0 mg/kg/injection, schedule: Q04DX003 (ip), vehicle: saline with Tween-80): 3 of 6; survivor count (dose: 150.0 mg/kg/injection, schedule: Q01DX001 (ip), vehicle: carboxymethylcellulose (CMC)): 3 of 6; survivor count (dose: 200.0 mg/kg/injection, schedule: Q01DX009 (ip), vehicle: saline): 0 of 3; survivor count (dose: 200.0 mg/kg/injection, schedule: Q04DX003 (ip), vehicle: saline with Tween-80): 0 of 6; survivor count (dose: 300.0 mg/kg/injection, schedule: Q01DX001 (ip), vehicle: carboxymethylcellulose (CMC)): 0 of 6; survivor count [7]: 0 of 6

Question: What does the source list for CCN(CC)CCC(=O)c1ccccc1?
Answer: survivor count [4]: 0 of 3; survivor count [6]: 0 of 3 and 0 of 6; survivor count [5]: 0 of 6
